Measured values published in PMC7950233.
Results are given in words; binding and its absence hold for the method and conditions named. In cells and extracts the contact can be indirect. Some entries that bind do so weakly or less than the wild type.

Chains of the proteins cited; added tags and fusions are not shown.
UniProt P30904: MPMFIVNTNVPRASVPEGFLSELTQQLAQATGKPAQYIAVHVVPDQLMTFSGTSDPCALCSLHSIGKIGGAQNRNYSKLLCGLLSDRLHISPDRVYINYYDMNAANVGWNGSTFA

Biological target: T1, CD74 receptor (rat (endogenous in primary joint capsule fibroblasts of SD rats)) (UniProt P10247)
T1 sequence: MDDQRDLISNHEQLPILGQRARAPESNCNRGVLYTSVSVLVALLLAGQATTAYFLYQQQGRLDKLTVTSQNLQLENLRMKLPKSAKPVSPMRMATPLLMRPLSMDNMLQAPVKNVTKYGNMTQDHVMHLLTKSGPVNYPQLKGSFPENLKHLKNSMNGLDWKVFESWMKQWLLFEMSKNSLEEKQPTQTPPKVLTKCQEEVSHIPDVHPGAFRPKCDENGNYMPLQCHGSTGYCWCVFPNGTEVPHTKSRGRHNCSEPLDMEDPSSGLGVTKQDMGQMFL
Test: co-IP; total lysates (500 ug) of primary rat JFs treated with MIF for 24 h; precleared with protein A plus G-Sepharose, incubated with anti-MIF or anti-CD74 antibody at 4 C, protein A plus G-Sepharose; immunoblot with anti-MIF or anti-CD74

Macrophage migration inhibitory factor (from UniProt P30904 1-115)
binding: binds
